# Source: PubChem BioAssay AID1347075 (National Center for Advancing Translational Sciences (NCATS), 2019)
# In all, about 400,000 compounds went through this assay and about 5,500 (1.4%) were called active. This list was built around the results that the source calls inconclusive (neither active nor inactive); the mix of calls is not that of the screen. The call rests on the fitted dose curve; in most records, active means well fitted cell-killing curve with a large enough effect; inconclusive means small, poorly fitted or top-dose-only effect, or effect the other way; inactive means flat fitted curve, though single readings scatter. Where the call is inconclusive, the potency comes from a doubtful curve fit.
# Experiment: qHTS assay for MDR1-selective chemotherapeutics: Primary screen using the parental adenocarcinoma cell KB-3-1; further: nearly all actives have a fitted effect of over 60% in size
# Details: KB-3-1 viability, CellTiter-Glo ATP luminescence, 72 h; activity change, negative = cytotoxic: at 46.1 µM (top of the series)
# Outline: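 Cytotoxicity in the drug-sensitive parental line KB-3-1 was scored as loss of CellTiter-Glo luminescence following 72 h incubation with compound. Values come from curve fitting of normalized concentration-response data.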
# On the % scale 0 is the no-effect control and ±100 the full control effect; potency means the concentration at half of the fitted maximal effect.
Structure (SMILES),Potency,"activity change, negative = cytotoxic"
CC(C)CCNC(=S)Nc1ccc([N+](=O)[O-])cc1,"inconclusive: 20.6 µM [cytotoxic, single point]",
COCCCN1C(=O)c2[nH]nc(-c3cc(C)cc(C)c3O)c2C1c1ccc(O)c(OC)c1 (centres undefined),"inconclusive: 29.1 µM [cytotoxic, single point]",
CN(C)CC(CCC(CN(C)C)C(O)(c1ccccc1)c1ccccc1)C(O)(c1ccccc1)c1ccccc1 (centres undefined),"inconclusive: 20.6 µM [cytotoxic, single point]",
N#CCC(=O)Nc1ccc(C(=O)OC(C(=O)Nc2ccc([N+](=O)[O-])cc2Br)c2ccccc2)cc1 (centres undefined),,inactive: -6.42%
Cc1ccccc1C(=O)Nc1ccc2nc3n(c(=O)c2c1)CCC3,active: 6.51 µM,
CC(C)C[C@H]1CN([C@@H](CC(C)C)CN2CCC[C@@H]2CN2C(=O)C(=O)NC[C@@H]2Cc2ccccc2)C(=O)C(=O)N1CCc1ccccc1,"inconclusive: 32.6 µM [cytotoxic, single point]",
Cc1n[nH]c(=S)n1/N=C/c1ccc(-c2ccccc2[N+](=O)[O-])o1,"inconclusive: 29.1 µM [cytotoxic, single point]",
Cc1onc(-c2c(Cl)cccc2Cl)c1C(=O)N=C(N)N1CCCC1,,inactive: 0%
COc1ccc(NC(=O)COC(=O)CN2C(=O)C3CCCCC3C2=O)cc1 (centres undefined),,inactive: -0.523%
COc1ccc(C(=O)NCCn2cc(SCC(=O)NCc3ccco3)c3ccccc32)cc1,active: 16.4 µM,
CCN1CCN(c2cc(C)c3cc(NC(=O)/C=C/c4cccc(Cl)c4)ccc3n2)CC1,"inconclusive: 32.6 µM [cytotoxic, single point]",
COCCCn1c(=O)c2sccc2n2c(CCCC(=O)N(C)Cc3ccco3)nnc12,"inconclusive: 32.6 µM [rising, single point]",
O=C(C1CCCCC1)N1C[C@@H](O)[C@H](n2cc(-c3ccc(F)cc3)nn2)C[C@@H]1c1ccccc1,active: 18.4 µM,
Cc1cccc(CN2CCCC(C(=O)Nc3ccc(-c4cscn4)cc3)C2)c1 (centres undefined),active: 16.4 µM,
Cc1cccc(-n2ncc3c2CCCC3NC(=O)C2(C(N)=O)CC2)c1C (centres undefined),"inconclusive: 1.16 µM [cytotoxic, partial curve, poor fit]",
Oc1ccc(-c2cnc3c(Nc4cccc(OC(F)(F)C(F)F)c4)nccn23)cc1,"inconclusive: 20.6 µM [cytotoxic, single point]",
N=C1c2ccccc2CN1NC(=O)CC12CC3CC(CC(C3)C1)C2,"inconclusive: 8.2 µM [rising, partial curve, poor fit]",
CCOC(=O)c1cnc2c(ccc3ccccc32)c1Nc1ccc(OC)c(OC)c1,active: 7.31 µM,
Cc1cccc(C2C=C(c3ccc(F)cc3)Nc3nc4ccccc4n32)c1 (centres undefined),"inconclusive: 16.4 µM [cytotoxic, single point]",
O=[N+]([O-])c1cccnc1Nc1ccc(Cl)cc1,,inactive: 8.06%
O=C(NCCN1CCOCC1)c1ccc(NC(=O)c2ccc(Br)o2)cc1,"inconclusive: 23.1 µM [rising, single point]",
Cc1[nH]c2ccccc2c(=O)c1C(=O)/C=C/c1ccccc1,"inconclusive: 2.06 µM [cytotoxic, partial curve, poor fit]",

# Ordered by molar mass (low to high): some entries from above.
Structure (SMILES),Potency,"activity change, negative = cytotoxic"
Cc1cccc(C2C=C(c3ccc(F)cc3)Nc3nc4ccccc4n32)c1 (centres undefined),"inconclusive: 16.4 µM [cytotoxic, single point]",
COc1ccc(NC(=O)COC(=O)CN2C(=O)C3CCCCC3C2=O)cc1 (centres undefined),,inactive: -0.523%
O=C(NCCN1CCOCC1)c1ccc(NC(=O)c2ccc(Br)o2)cc1,"inconclusive: 23.1 µM [rising, single point]",
COc1ccc(C(=O)NCCn2cc(SCC(=O)NCc3ccco3)c3ccccc32)cc1,active: 16.4 µM,
N#CCC(=O)Nc1ccc(C(=O)OC(C(=O)Nc2ccc([N+](=O)[O-])cc2Br)c2ccccc2)cc1 (centres undefined),,inactive: -6.42%

# (further entries)

Structure (SMILES),Potency,"activity change, negative = cytotoxic"
CC(=O)Nc1cc(-c2ccc(C(=O)NC3CC3)cc2)cn2c(-c3cccc(C(F)(F)F)c3)cnc12,"inconclusive: 29.1 µM [cytotoxic, single point]",
CCOc1ccc(NS(=O)(=O)c2cc(NC(=O)CCS(=O)(=O)c3ccc(C)cc3)ccc2OC)cc1,"inconclusive: 18.4 µM [cytotoxic, single point]",
Cc1ccc(NC(=O)c2cccc(OCc3c(C)noc3C)c2)c(C)c1,"inconclusive: 29.1 µM [cytotoxic, single point]",
CN1CCCC(C#CC(O)(c2ccccc2)c2ccccc2)C1 (centres undefined),,inactive: 2.62%
Cc1[nH]c2ccccc2c1/C=C/c1nc2ccccc2c(=O)n1CCO,active: 11.6 µM,
COc1ccc(NC(=O)CC2C(=O)N(c3ccc(Cl)cc3)C(=S)N2CCc2ccncc2)cc1 (centres undefined),"inconclusive: 16.4 µM [cytotoxic, single point]",
COCCn1ccc2c(OCC(=O)NCc3ccc(F)cc3)cccc2c1=O,,inactive: -4.21%
CCOC(=O)c1cc(C)nc(Sc2ccc(C)cc2)c1C#N,"inconclusive: 16.4 µM [cytotoxic, partial curve, poor fit]",
COc1ccc(C(=O)NCCSc2c(C)[nH]c3ccccc23)cc1,"inconclusive: 3.66 µM [cytotoxic, partial curve, poor fit]",
Cc1cc2nc(C(C)(C)C)c(Cc3ccccc3)n2c(C)c1Br,,inactive: 0.0302%
O=C(NC1CCCCC1)C(c1ccncc1)n1c(=O)c(-c2cc3ccccc3[nH]2)nc2ccccc21 (centres undefined),active: 20.6 µM,
Cc1cc(C)c(NC(=O)/C(=C/c2ccccc2)c2ccccc2)c(C)c1,"inconclusive: 18.4 µM [cytotoxic, single point]",
COC(=O)C[C@@H]1CC[C@H](NC(=O)Nc2ccc(OC)cc2)[C@@H](CO)O1,,inconclusive: 11.7%
CCOC(=O)c1ccc(N2C(=O)c3n[nH]c(-c4ccco4)c3C2c2ccc(OC)cc2OC)cc1 (centres undefined),"inconclusive: 29.1 µM [cytotoxic, single point]",
O=C(CN1CCN(c2ccccc2Cl)CC1)NC1CCCc2ccccc21 (centres undefined),"inconclusive: 29.1 µM [cytotoxic, single point]",
N#Cc1ccc(/C=C/C(=O)c2ccc3c(c2)OCO3)cc1,,inactive: 0.243%
CCN(CC)CCCN(C(=O)c1ccc(Br)cc1)c1nc(-c2ccc(OC)cc2)cs1,"inconclusive: 29.1 µM [cytotoxic, single point]",
O=C1c2ccccc2C(=O)N1c1cccc(O)c1,"inconclusive: 32.6 µM [rising, partial curve, poor fit]",
O=C(O)c1[nH]c2ccccc2c1C(c1c(F)cccc1Cl)c1c(C(=O)O)[nH]c2ccccc12,,inactive: 0.0506%
C[C@@H]1CN([C@H](C)CO)C(=O)Cc2cc(NS(=O)(=O)c3cn(C)cn3)ccc2O[C@H]1CN(C)S(=O)(=O)c1ccc(Cl)cc1,,inactive: 0%
COc1ccc(C2CC(C(F)(F)F)n3nc(C(=O)NCc4c(C)nn(C)c4C)c(Cl)c3N2)cc1 (centres undefined),"inconclusive: 20.6 µM [cytotoxic, partial curve, poor fit]",
Cn1c(=O)c2ccccc2n(CC(=O)N2CCCc3ccccc32)c1=O,,inactive: -4.34%

Structure (SMILES),Potency,"activity change, negative = cytotoxic"
O=C(COC(=O)c1ccc(N2CCOCC2)c([N+](=O)[O-])c1)Nc1ccc2c(c1)OCO2,"inconclusive: 20.6 µM [cytotoxic, single point]",
CN(Cc1ccccc1)C(=O)c1ccc(Nc2nc(C(N)Cc3ccc(C(F)(F)F)cc3)cs2)nc1 (centres undefined),"inconclusive: 29.1 µM [cytotoxic, single point]",
COc1ccc(NC(=O)c2nc(C)c(C3(C)CC(c4ccccc4)=NO3)s2)cc1 (centres undefined),active: 4.61 µM,
C[C@H](NC(=O)c1nc[nH]c1C(=O)NC1CCN(C(=O)OC(C)(C)C)CC1)C(=O)OC(C)(C)C,,inactive: -11.6%
Cc1ccc(C)c(NC(=O)COC(=O)c2cccc3c2C(=O)c2ccccc2C3=O)c1,"inconclusive: 29.1 µM [cytotoxic, single point]",
COc1ccc(CCC(=O)O)c(O)c1,,inactive: -2.75%
CC(=O)c1cccc(-c2cnc3c(NC=O)cc(-c4ccc(F)cc4)cn23)c1,"inconclusive: 29.1 µM [cytotoxic, single point]",
COc1cc(NC(=O)N[C@H](C(=O)O)C(C)C)cc(OC)c1,"inconclusive: 20.6 µM [rising, single point]",
CC(C)=CCC/C(C)=C/CNC(=O)C[C@H]1C[C@H](C(=O)N2CCOCC2)[C@@]2(CCC3CCCC3)c3[nH]c4cc(-c5ccco5)ccc4c3CCN2C1=O,"inconclusive: 16.4 µM [cytotoxic, single point]",
CCCCNC(=O)C1(C)CCN1Cc1cc(C)ccc1C (centres undefined),,inactive: 1.02%
O=C(Nc1ccc(N2CCN(c3ncccc3C(F)(F)F)CC2)nc1)c1cccs1,active: 16.4 µM,
CC#CCN1c2ccccc2[C@]23C[C@@H](C(=O)OC)N(C(=O)c4cc(C)oc4C)C2=NC(C(=O)OC)=C(C(=O)OC)[C@H]13,"inconclusive: 18.4 µM [cytotoxic, single point]",
CCOc1nnnc2c1sc1nc(N3CCOCC3)c3c(c12)CCCC3,"inconclusive: 1.16 µM [rising, full curve, poor fit]",
O=C(NCc1ccccc1Cl)c1cccc2c1C(=O)c1ccc(-c3ccc(OC(F)(F)F)cc3)cc1S2(=O)=O,"inconclusive: 11.6 µM [cytotoxic, partial curve]",
CCOP(=O)(OCC)c1nc(/C=C/c2ccccc2)oc1NCc1ccccc1,"inconclusive: 29.1 µM [cytotoxic, single point]",
COc1ccc(C#Cc2c(-c3ccccc3)n(C)c3ccccc23)cc1,"inconclusive: 23.1 µM [cytotoxic, single point]",
COc1ccccc1Cn1c(=S)[nH]c2cc(C(=O)N3CCC(C(N)=O)CC3)ccc2c1=O,,inactive: 3.97%
CC(C)Sc1nc(SCC(=O)NCc2ccco2)c2c3c(sc2n1)COC(C)(C)C3,"inconclusive: 29.1 µM [cytotoxic, partial curve, poor fit]",
N#CC1=C(SCc2ccc(C#N)cc2)N=C(N)C(c2nc(-c3ccccc3)cs2)C12CCCCC2 (centres undefined),"inconclusive: 29.1 µM [cytotoxic, single point]",
C[C@H]1CN([C@@H](C)CO)C(=O)c2cccc(NC(=O)Nc3ccc(C(F)(F)F)cc3)c2O[C@@H]1CN(C)S(=O)(=O)c1ccc(Cl)cc1,"inconclusive: 20.6 µM [cytotoxic, single point]",
